PubChem BioAssay AID504764 | Drosophila RNAi Screening Center, 2011
The screen tested about 22,000 reagents; shown is a random part of those that have a named target and a result. In the full data, 403 (1.9%) are marked active. 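Unnormalised raw counts per well; ratio z-scores behind the hit calls and whether each hit raises or lowers signal are not deposited.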 A plus sign joins genes that one reagent is predicted to hit. Not given: the amount of reagent.

- Purpose: 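Genome-wide screen for regulators of Notch-driven gene expression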 (primary screen)
- System: Drosophila Kc167 cells
- Knock-down reagent: long dsRNA against Drosophila genes
- Time to read-out: about 5 days (4 days dsRNA, then 24 h after transfection)
- Challenge: transfection of constitutively active membrane-tethered Notch lacking the extracellular domain, read 24 h later
- Read-out: 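Firefly luciferase from an E(spl)m3 reporter with active Notch, plus control-promoter and uninduced reporter wells for normalisation; unnormalised counts, duplicate wells a and b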
- Direction: induced reporter light, run 1, well a and induced reporter light, run 1, well b: higher = more light from the Notch target reporter with active Notch; control promoter light, run 1, well a and control promoter light, run 1, well b: higher = more light from the viral control promoter (cell number, transfection, viability); uninduced reporter light, run 1, well a: higher = more light from the Notch target reporter without active Notch
- Hit rule: 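Wells with low control signal or poorly matching duplicates excluded; duplicates averaged; per source plate, z beyond ±2 for induced/control log2 ratio or beyond ±1.8 for induced/uninduced marks a hit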
- Calls: active = modifier hit (raised or lowered Notch signal); inactive = not a hit

target gene,DRSC id,"induced reporter light, run 1, well a","induced reporter light, run 1, well b","control promoter light, run 1, well a","control promoter light, run 1, well b","uninduced reporter light, run 1, well a",call
tun,DRSC05592,1.37e5,2.77e5,2.92e5,2.74e5,17665,inactive
tun,DRSC07127,1.10e5,92885,1.84e5,1.99e5,9425,inactive
achi,DRSC07276,1.10e5,1.23e5,1.32e5,1.41e5,9285,inactive
inaF-C,DRSC18902,87920,65560,96010,73105,6015,inactive
CG16853,DRSC01877,1.14e5,1.28e5,1.26e5,1.46e5,9535,inactive
CG11865,DRSC01872,1.24e5,1.25e5,1.24e5,1.43e5,10245,inactive
Acox57D-d,DRSC04561,1.13e5,95210,75195,67300,6740,inactive
CG8916,DRSC20120,1.08e5,86050,86550,83670,11382,inactive
Orct,DRSC16777,85600,99095,85310,98330,8375,inactive
CG43896,DRSC10754,1.59e5,1.45e5,2.06e5,1.53e5,9812,inactive
Gr97a,DRSC13802,2.08e5,1.87e5,1.98e5,2.10e5,18305,inactive
Muc68E,DRSC09146,1.89e5,1.83e5,1.87e5,1.85e5,13710,inactive
CG14562,DRSC11723,35165,35280,32095,25790,2110,inactive
Prtl99C,DRSC15049,1.08e5,1.14e5,1.72e5,1.60e5,9015,inactive
cutlet,DRSC00284,1.71e5,1.80e5,2.00e5,2.20e5,11828,inactive
CG12730,DRSC17885,1.38e5,1.47e5,3.28e5,1.91e5,10305,inactive
CG14331,DRSC14810,1.89e5,1.62e5,1.44e5,1.61e5,12820,inactive
CG7384,DRSC03053,2.90e5,2.71e5,2.25e5,2.47e5,21800,inactive
CG6059,DRSC15958,1.85e5,2.27e5,2.33e5,2.53e5,13315,inactive
Cpr97Ea,DRSC15974,1.55e5,1.87e5,2.16e5,1.95e5,14728,inactive
atilla,DRSC02971,1.57e5,1.71e5,1.36e5,1.57e5,11575,inactive
CG11322,DRSC02142,56360,51125,65185,49830,3825,inactive
Sidpn,DRSC02056,2.56e5,2.20e5,1.79e5,1.81e5,16225,inactive
corolla,DRSC20102,1.24e5,1.15e5,91240,56575,9910,inactive
VAChT,DRSC13311,1.16e5,95070,1.34e5,1.24e5,13345,inactive
VAChT,DRSC16608,1.43e5,1.56e5,1.41e5,1.50e5,10692,inactive
Stlk,DRSC22687,,,,,,inactive
retm,DRSC03252,1.68e5,1.84e5,1.70e5,1.38e5,15905,inactive
CG31819,DRSC01532,92000,85475,85180,57230,8365,inactive
AspRS,DRSC05914,65535,64090,65890,56400,5090,inactive
CG7550,DRSC10875,2.55e5,1.98e5,2.44e5,2.17e5,8190,inactive
Cpr73D,DRSC11084,98830,1.38e5,81680,81530,9010,inactive
Rh4 + sina,DRSC11396,1.34e5,1.57e5,78520,1.05e5,11555,inactive
mgl,DRSC17800,1.26e5,1.21e5,2.19e5,2.68e5,8580,inactive
mgl,DRSC17823,2.44e5,1.96e5,2.02e5,2.09e5,13385,inactive
mgl,DRSC17859,1.26e5,1.22e5,1.86e5,1.79e5,7065,inactive
mgl,DRSC18004,52960,63075,1.07e5,1.12e5,4490,inactive
CG4880,DRSC19923,1.11e5,98410,90720,52560,9545,inactive
CG6733,DRSC16103,1.20e5,1.11e5,1.47e5,1.67e5,13405,inactive
Atac3,DRSC08579,1.25e5,1.20e5,2.22e5,2.24e5,9085,inactive
trv,DRSC13846,1.96e5,1.87e5,1.60e5,1.57e5,16220,inactive
trv,DRSC14559,40285,52955,38935,42545,6120,inactive
trv,DRSC14560,1.41e5,1.58e5,1.64e5,1.59e5,12040,inactive
trv,DRSC14561,1.24e5,1.09e5,1.97e5,1.77e5,10600,inactive
Uba2,DRSC11311,2.61e5,2.19e5,3.23e5,2.39e5,10830,inactive
Jhbp12,DRSC14621,1.64e5,1.88e5,2.47e5,1.92e5,13870,inactive
Nepl18,DRSC14879,1.60e5,1.54e5,2.18e5,2.05e5,15950,inactive
Tango1,DRSC02127,1.34e5,1.46e5,1.43e5,1.70e5,12100,inactive
Mppe,DRSC07296,2.15e5,1.86e5,1.63e5,1.81e5,14200,inactive
Adk3,DRSC05917,1.64e5,1.73e5,1.23e5,1.34e5,9835,inactive
